# Reference: patent US20230346743A1, “COMBINATION CANCER THERAPIES” (The Board of Regents of the University of Oklahoma, priority 2018, published 2023)
# At least one compound was matched to its structure with a doubt left.
# System: SiHa cervical cancer cell line xenograft
# Assay: SiHa xenograft tumor growth
# Format: in vivo, mice
# Details: gavage 60 mg/kg SHetA2, 100 mg/kg palbociclib or the combination every other day
# From the text: FIG. 49. […] Controls were gavaged with the same Kolliphor HS15 used to suspend the drugs. Using a generalized estimating equations (GEE) model to analyze tumor growth treated as a continuous variable, there was a significant additive effect of SHetA2 (p<0.001) and palbociclib (p<0.001) on day 65 of treatment. This additive effect between SHetA2 (p=0.001) and palbociclib (p=0.051) was trending significant at day 63 of treatment. Additionally, SHetA2 starts to show significant tumor suppressing activity as early as day 63 of treatment (p=0.045).
compound,measurement,value
"CC(=O)c1c(C)c2cnc(Nc3ccc(N4CCNCC4)cn3)nc2n(C2CCCC2)c1=O [Palbociclib, reference compound]",SiHa xenograft tumor growth,significantly reduce SiHa cervical cancer cell line xenograft tumor growth
